Test results published in the supplement of paper PMC7661543.
The effect of the compound repeats well; differences between the knockouts mostly do not.

Tested on: SKBR3
Assay: relative cell number vs DMSO control (72 h) (% of DMSO); higher = less growth inhibition (more cells)
Procedure: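 QMAP-Seq: a pool of 5 breast cancer cell lines (ZR-75-1, SKBR3, HCC-38, MDA-MB-231, BT-20), each carrying 12 doxycycline-inducible Cas9 sgRNA perturbations (11 knockouts plus non-targeting sgNT), was treated with compounds for 72 h at four 10-fold doses (10 nM-10 uM or 1 nM-1 uM range). Barcodes were amplified and sequenced, and cell number was interpolated from 293T spike-in standard curves. The result is expressed as % of the median of DMSO wells. Two biological replicates.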

COCC[n+]1c2c(n(Cc3cnccn3)c1C)C(=O)c1ccccc1C2=O [YM155]
Conditions | relative cell number
sgRNA knockout: sgATF3, 1 nM | 80.7
sgRNA knockout: sgATF3, 10 nM | 57.2
sgRNA knockout: sgATF3, 100 nM | 4.22
sgRNA knockout: sgATF3, 1000 nM | 7.14
sgRNA knockout: sgATF4, 1 nM | 87.8
sgRNA knockout: sgATF4, 10 nM | 74.6
sgRNA knockout: sgATF4, 100 nM | 14.9
sgRNA knockout: sgATF4, 1000 nM | 8.42
sgRNA knockout: sgATF6, 1 nM | 89.1
sgRNA knockout: sgATF6, 10 nM | 59.1
sgRNA knockout: sgATF6, 100 nM | 9.96
sgRNA knockout: sgATF6, 1000 nM | 3.99
sgRNA knockout: sgATG7, 1 nM | 92.7
sgRNA knockout: sgATG7, 10 nM | 61
sgRNA knockout: sgATG7, 100 nM | 9.21
sgRNA knockout: sgATG7, 1000 nM | 6.62
sgRNA knockout: sgERN1, 1 nM | 109
sgRNA knockout: sgERN1, 10 nM | 56.4
sgRNA knockout: sgERN1, 100 nM | 6.99
sgRNA knockout: sgERN1, 1000 nM | 7.86
sgRNA knockout: sgHSF1, 1 nM | 86.6
sgRNA knockout: sgHSF1, 10 nM | 63.7
sgRNA knockout: sgHSF1, 100 nM | 6.35
sgRNA knockout: sgHSF1, 1000 nM | 5.91
sgRNA knockout: sgHSF2, 1 nM | 102
sgRNA knockout: sgHSF2, 10 nM | 71.9
sgRNA knockout: sgHSF2, 100 nM | 7.73
sgRNA knockout: sgHSF2, 1000 nM | 7.97
sgRNA knockout: sgKEAP1, 1 nM | 75.7
sgRNA knockout: sgKEAP1, 10 nM | 45.4
sgRNA knockout: sgKEAP1, 100 nM | 6.71
sgRNA knockout: sgKEAP1, 1000 nM | 6.66
sgRNA knockout: sgNFE2L2, 1 nM | 96.4
sgRNA knockout: sgNFE2L2, 10 nM | 67.7
sgRNA knockout: sgNFE2L2, 100 nM | 11.5
sgRNA knockout: sgNFE2L2, 1000 nM | 6.77
sgRNA knockout: sgSLC35F2, 1 nM | 82.1
sgRNA knockout: sgSLC35F2, 10 nM | 56.5
sgRNA knockout: sgSLC35F2, 100 nM | 9.46
sgRNA knockout: sgSLC35F2, 1000 nM | 6.98
sgRNA knockout: sgXBP1, 1 nM | 101
sgRNA knockout: sgXBP1, 10 nM | 72.8
sgRNA knockout: sgXBP1, 100 nM | 8.16
sgRNA knockout: sgXBP1, 1000 nM | 5.91

COc1ccc(-c2ccc3c(N4CCOCC4)nc(N4C[C@@H](C)O[C@@H](C)C4)nc3n2)cc1CO
Conditions | relative cell number
sgRNA knockout: sgATF3, 10 nM | 103
sgRNA knockout: sgATF3, 100 nM | 132
sgRNA knockout: sgATF3, 1000 nM | 93.9
sgRNA knockout: sgATF3, 10000 nM | 45.7
sgRNA knockout: sgATF4, 10 nM | 99.9
sgRNA knockout: sgATF4, 100 nM | 112
sgRNA knockout: sgATF4, 1000 nM | 74.6
sgRNA knockout: sgATF4, 10000 nM | 45.5
sgRNA knockout: sgATF6, 10 nM | 88.5
sgRNA knockout: sgATF6, 100 nM | 99.8
sgRNA knockout: sgATF6, 1000 nM | 77.6
sgRNA knockout: sgATF6, 10000 nM | 34.7
sgRNA knockout: sgATG7, 10 nM | 102
sgRNA knockout: sgATG7, 100 nM | 101
sgRNA knockout: sgATG7, 1000 nM | 70.6
sgRNA knockout: sgATG7, 10000 nM | 36.8
sgRNA knockout: sgERN1, 10 nM | 89.4
sgRNA knockout: sgERN1, 100 nM | 109
sgRNA knockout: sgERN1, 1000 nM | 69
sgRNA knockout: sgERN1, 10000 nM | 40.6
sgRNA knockout: sgHSF1, 10 nM | 96.6
sgRNA knockout: sgHSF1, 100 nM | 110
sgRNA knockout: sgHSF1, 1000 nM | 62.4
sgRNA knockout: sgHSF1, 10000 nM | 43.3
sgRNA knockout: sgHSF2, 10 nM | 102
sgRNA knockout: sgHSF2, 100 nM | 110
sgRNA knockout: sgHSF2, 1000 nM | 82
sgRNA knockout: sgHSF2, 10000 nM | 45.3
sgRNA knockout: sgKEAP1, 10 nM | 84.9
sgRNA knockout: sgKEAP1, 100 nM | 96.8
sgRNA knockout: sgKEAP1, 1000 nM | 69.8
sgRNA knockout: sgKEAP1, 10000 nM | 41
sgRNA knockout: sgNFE2L2, 10 nM | 99.2
sgRNA knockout: sgNFE2L2, 100 nM | 117
sgRNA knockout: sgNFE2L2, 1000 nM | 65.6
sgRNA knockout: sgNFE2L2, 10000 nM | 45
sgRNA knockout: sgSLC35F2, 10 nM | 102
sgRNA knockout: sgSLC35F2, 100 nM | 112
sgRNA knockout: sgSLC35F2, 1000 nM | 74.3
sgRNA knockout: sgSLC35F2, 10000 nM | 41.4
sgRNA knockout: sgXBP1, 10 nM | 91.4
sgRNA knockout: sgXBP1, 100 nM | 128
sgRNA knockout: sgXBP1, 1000 nM | 70.4
sgRNA knockout: sgXBP1, 10000 nM | 39.9

Cc1cnc(Nc2ccc(OCCN3CCCC3)cc2)nc1Nc1cccc(S(=O)(=O)NC(C)(C)C)c1
Conditions | relative cell number
sgRNA knockout: sgATF3, 10 nM | 91.9
sgRNA knockout: sgATF3, 100 nM | 72
sgRNA knockout: sgATF3, 1000 nM | 58.1
sgRNA knockout: sgATF3, 10000 nM | 30.7
sgRNA knockout: sgATF4, 10 nM | 84
sgRNA knockout: sgATF4, 100 nM | 92.6
sgRNA knockout: sgATF4, 1000 nM | 57.4
sgRNA knockout: sgATF4, 10000 nM | 28.3
sgRNA knockout: sgATF6, 10 nM | 85.5
sgRNA knockout: sgATF6, 100 nM | 86.6
sgRNA knockout: sgATF6, 1000 nM | 55.5
sgRNA knockout: sgATF6, 10000 nM | 21.8
sgRNA knockout: sgATG7, 10 nM | 86.9
sgRNA knockout: sgATG7, 100 nM | 80.1
sgRNA knockout: sgATG7, 1000 nM | 68.86
sgRNA knockout: sgATG7, 10000 nM | 23.2
sgRNA knockout: sgERN1, 10 nM | 97.8
sgRNA knockout: sgERN1, 100 nM | 97.8
sgRNA knockout: sgERN1, 1000 nM | 54.3
sgRNA knockout: sgERN1, 10000 nM | 21.9
sgRNA knockout: sgHSF1, 10 nM | 99.5
sgRNA knockout: sgHSF1, 100 nM | 79.4
sgRNA knockout: sgHSF1, 1000 nM | 62.2
sgRNA knockout: sgHSF1, 10000 nM | 23.8
sgRNA knockout: sgHSF2, 10 nM | 88
sgRNA knockout: sgHSF2, 100 nM | 78.7
sgRNA knockout: sgHSF2, 1000 nM | 57.4
sgRNA knockout: sgHSF2, 10000 nM | 25.1
sgRNA knockout: sgKEAP1, 10 nM | 84.3
sgRNA knockout: sgKEAP1, 100 nM | 85.6
sgRNA knockout: sgKEAP1, 1000 nM | 56.59
sgRNA knockout: sgKEAP1, 10000 nM | 23.2
sgRNA knockout: sgNFE2L2, 10 nM | 96.5
sgRNA knockout: sgNFE2L2, 100 nM | 92
sgRNA knockout: sgNFE2L2, 1000 nM | 58.3
sgRNA knockout: sgNFE2L2, 10000 nM | 23.2
sgRNA knockout: sgSLC35F2, 10 nM | 97.2
sgRNA knockout: sgSLC35F2, 100 nM | 71.8
sgRNA knockout: sgSLC35F2, 1000 nM | 59.7
sgRNA knockout: sgSLC35F2, 10000 nM | 24.8
sgRNA knockout: sgXBP1, 10 nM | 82.7
sgRNA knockout: sgXBP1, 100 nM | 115
sgRNA knockout: sgXBP1, 1000 nM | 43.6
sgRNA knockout: sgXBP1, 10000 nM | 26.5
